Results from the supplement of paper PMC10849652.
Some of the results follow.

Sequences of proteins named here, by UniProt entry; tags and fusion partners are left off. A change or cut given only in a name is not applied to a line headed by its entry.
UniProt O95487: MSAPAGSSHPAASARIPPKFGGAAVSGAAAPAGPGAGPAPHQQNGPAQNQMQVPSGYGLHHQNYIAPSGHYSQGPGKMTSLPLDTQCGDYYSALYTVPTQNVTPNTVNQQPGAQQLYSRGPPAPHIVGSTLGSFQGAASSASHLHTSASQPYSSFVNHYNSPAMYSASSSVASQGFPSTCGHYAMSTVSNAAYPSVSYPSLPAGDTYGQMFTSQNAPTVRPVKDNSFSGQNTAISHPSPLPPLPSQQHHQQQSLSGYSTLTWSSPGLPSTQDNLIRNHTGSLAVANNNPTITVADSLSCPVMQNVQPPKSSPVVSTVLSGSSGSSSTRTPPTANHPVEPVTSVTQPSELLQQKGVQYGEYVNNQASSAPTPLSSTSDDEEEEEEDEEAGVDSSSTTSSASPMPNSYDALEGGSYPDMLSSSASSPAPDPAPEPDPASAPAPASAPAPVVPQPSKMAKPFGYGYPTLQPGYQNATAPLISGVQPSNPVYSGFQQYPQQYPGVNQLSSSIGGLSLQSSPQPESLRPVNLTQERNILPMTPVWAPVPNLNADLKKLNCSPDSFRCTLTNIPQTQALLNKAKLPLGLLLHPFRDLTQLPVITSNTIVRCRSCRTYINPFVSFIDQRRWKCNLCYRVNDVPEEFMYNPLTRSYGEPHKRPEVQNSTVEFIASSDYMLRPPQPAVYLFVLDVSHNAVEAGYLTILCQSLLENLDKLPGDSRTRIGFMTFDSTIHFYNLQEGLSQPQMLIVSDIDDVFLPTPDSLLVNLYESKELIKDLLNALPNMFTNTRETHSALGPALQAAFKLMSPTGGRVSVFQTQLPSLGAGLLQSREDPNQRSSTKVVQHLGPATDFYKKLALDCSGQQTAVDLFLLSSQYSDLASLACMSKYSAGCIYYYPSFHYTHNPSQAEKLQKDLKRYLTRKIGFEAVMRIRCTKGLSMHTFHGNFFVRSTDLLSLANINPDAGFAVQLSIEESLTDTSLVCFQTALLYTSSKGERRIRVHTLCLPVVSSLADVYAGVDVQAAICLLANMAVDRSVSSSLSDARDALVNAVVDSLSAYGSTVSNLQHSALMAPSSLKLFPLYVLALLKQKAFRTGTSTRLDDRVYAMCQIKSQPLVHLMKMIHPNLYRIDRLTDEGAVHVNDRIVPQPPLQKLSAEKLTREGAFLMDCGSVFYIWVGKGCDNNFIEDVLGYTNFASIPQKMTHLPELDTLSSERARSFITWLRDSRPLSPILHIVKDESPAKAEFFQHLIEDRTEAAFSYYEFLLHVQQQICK
UniProt O95486: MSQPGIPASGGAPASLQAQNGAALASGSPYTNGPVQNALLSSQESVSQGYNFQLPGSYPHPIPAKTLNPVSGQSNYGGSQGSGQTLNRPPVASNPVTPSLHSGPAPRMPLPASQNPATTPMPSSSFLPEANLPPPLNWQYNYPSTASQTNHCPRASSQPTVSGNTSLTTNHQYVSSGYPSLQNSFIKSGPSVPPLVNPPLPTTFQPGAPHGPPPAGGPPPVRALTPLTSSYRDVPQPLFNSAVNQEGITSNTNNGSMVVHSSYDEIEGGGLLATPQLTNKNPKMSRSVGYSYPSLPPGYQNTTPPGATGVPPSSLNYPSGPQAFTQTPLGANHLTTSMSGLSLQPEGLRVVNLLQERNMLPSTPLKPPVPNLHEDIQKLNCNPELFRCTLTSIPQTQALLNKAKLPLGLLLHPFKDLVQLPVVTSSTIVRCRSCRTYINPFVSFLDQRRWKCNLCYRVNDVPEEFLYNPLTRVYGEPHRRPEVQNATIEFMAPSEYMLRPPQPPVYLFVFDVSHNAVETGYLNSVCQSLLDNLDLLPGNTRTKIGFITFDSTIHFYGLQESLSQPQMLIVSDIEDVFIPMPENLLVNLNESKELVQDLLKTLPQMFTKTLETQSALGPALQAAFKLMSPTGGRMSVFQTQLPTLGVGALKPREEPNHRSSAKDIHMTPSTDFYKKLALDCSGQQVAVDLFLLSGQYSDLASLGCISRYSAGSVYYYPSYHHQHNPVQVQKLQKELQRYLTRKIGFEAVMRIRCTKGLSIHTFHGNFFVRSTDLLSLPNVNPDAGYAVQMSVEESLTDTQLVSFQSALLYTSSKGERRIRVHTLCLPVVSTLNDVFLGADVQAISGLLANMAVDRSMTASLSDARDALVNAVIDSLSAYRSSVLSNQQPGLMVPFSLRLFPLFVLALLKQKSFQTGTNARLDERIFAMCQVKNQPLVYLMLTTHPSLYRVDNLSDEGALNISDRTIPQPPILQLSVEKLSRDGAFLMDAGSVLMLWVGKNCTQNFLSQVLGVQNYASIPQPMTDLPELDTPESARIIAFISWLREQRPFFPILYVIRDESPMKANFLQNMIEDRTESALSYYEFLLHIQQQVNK
UniProt Q9H7N4: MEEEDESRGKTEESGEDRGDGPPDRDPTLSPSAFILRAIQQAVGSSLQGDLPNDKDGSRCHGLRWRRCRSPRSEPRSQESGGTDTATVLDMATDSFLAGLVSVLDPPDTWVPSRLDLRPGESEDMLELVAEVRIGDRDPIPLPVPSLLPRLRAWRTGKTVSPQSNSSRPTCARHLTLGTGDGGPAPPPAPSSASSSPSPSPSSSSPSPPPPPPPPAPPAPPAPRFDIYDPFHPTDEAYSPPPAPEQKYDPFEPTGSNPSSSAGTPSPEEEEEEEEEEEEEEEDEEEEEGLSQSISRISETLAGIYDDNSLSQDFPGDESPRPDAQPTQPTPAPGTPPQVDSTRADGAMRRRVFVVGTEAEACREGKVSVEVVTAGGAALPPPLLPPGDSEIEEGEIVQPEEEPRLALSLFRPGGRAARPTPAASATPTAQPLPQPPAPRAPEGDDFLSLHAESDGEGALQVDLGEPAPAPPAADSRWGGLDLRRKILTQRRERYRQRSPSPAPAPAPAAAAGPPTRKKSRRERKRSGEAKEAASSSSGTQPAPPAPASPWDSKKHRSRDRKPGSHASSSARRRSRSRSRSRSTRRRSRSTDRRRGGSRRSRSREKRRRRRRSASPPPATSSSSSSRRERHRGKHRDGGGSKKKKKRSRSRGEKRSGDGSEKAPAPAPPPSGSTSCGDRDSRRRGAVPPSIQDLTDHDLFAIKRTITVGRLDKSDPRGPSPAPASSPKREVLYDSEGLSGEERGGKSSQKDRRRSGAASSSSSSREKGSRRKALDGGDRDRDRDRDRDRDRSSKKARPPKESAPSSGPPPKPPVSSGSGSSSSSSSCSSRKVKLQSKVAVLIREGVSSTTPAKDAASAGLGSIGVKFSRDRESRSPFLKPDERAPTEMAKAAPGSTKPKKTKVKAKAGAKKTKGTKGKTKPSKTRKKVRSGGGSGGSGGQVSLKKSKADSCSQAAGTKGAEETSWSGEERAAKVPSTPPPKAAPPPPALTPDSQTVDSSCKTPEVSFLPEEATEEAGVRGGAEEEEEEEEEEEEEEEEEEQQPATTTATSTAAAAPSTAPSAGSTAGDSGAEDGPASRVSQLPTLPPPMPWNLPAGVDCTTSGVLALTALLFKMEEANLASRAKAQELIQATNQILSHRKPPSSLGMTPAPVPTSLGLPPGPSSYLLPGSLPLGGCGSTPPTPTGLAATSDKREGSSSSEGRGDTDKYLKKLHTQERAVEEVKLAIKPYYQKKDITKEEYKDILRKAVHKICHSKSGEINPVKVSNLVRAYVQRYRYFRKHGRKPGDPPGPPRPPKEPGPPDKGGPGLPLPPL
UniProt Q96EE3: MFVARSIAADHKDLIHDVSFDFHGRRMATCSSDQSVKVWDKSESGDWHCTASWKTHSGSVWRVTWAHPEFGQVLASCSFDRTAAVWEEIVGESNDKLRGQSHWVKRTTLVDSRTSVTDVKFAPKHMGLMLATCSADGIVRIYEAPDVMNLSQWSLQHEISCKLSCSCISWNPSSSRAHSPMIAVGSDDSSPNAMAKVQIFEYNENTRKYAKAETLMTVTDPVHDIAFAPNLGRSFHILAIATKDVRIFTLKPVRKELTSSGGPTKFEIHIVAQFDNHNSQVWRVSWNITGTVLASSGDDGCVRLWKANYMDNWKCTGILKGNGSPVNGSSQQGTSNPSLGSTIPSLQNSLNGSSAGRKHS
UniProt Q15437: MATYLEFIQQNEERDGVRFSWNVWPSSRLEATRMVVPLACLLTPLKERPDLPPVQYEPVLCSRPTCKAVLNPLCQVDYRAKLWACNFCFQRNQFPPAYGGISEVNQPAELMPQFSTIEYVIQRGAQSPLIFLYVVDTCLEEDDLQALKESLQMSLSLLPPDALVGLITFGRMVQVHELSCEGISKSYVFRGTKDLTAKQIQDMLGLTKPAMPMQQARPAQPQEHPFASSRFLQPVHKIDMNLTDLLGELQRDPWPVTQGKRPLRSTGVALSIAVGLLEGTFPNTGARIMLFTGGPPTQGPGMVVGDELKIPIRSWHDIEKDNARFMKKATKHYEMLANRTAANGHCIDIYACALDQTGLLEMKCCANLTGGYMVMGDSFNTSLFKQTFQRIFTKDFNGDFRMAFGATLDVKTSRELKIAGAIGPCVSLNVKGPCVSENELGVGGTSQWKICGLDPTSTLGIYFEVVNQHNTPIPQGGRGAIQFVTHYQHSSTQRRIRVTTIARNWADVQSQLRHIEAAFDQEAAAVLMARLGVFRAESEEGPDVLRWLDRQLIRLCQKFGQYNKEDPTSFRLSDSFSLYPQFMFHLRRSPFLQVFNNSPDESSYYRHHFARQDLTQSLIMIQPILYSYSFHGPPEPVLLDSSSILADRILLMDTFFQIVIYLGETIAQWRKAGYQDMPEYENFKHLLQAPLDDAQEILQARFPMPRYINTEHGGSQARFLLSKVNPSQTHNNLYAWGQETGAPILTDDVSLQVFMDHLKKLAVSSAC
UniProt P60059: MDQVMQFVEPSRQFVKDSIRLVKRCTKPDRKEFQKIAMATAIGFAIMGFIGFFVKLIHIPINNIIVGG
UniProt Q6P3W7: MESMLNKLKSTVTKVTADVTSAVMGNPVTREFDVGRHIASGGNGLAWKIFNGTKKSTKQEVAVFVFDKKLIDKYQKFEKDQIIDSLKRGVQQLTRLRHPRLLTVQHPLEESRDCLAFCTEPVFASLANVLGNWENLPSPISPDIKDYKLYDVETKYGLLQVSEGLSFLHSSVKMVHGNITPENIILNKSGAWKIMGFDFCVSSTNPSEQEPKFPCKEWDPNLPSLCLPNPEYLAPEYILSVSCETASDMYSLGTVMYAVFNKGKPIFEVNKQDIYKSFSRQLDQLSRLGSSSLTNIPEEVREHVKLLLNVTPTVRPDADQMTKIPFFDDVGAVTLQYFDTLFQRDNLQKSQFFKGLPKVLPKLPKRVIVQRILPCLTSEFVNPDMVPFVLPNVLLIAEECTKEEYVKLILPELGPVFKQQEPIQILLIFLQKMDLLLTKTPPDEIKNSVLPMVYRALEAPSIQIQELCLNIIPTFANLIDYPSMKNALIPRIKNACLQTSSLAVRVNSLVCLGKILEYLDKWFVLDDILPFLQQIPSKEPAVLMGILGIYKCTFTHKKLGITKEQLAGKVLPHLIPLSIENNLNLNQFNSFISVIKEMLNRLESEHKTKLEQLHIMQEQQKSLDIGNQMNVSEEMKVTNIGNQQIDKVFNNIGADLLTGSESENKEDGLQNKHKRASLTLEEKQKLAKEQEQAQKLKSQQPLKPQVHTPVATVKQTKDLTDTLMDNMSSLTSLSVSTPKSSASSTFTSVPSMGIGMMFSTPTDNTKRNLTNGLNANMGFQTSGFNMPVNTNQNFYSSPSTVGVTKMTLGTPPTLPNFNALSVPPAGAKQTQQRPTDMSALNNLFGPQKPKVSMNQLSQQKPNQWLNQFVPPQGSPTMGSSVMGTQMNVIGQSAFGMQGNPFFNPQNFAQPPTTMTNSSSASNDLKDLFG
UniProt Q9NTJ5: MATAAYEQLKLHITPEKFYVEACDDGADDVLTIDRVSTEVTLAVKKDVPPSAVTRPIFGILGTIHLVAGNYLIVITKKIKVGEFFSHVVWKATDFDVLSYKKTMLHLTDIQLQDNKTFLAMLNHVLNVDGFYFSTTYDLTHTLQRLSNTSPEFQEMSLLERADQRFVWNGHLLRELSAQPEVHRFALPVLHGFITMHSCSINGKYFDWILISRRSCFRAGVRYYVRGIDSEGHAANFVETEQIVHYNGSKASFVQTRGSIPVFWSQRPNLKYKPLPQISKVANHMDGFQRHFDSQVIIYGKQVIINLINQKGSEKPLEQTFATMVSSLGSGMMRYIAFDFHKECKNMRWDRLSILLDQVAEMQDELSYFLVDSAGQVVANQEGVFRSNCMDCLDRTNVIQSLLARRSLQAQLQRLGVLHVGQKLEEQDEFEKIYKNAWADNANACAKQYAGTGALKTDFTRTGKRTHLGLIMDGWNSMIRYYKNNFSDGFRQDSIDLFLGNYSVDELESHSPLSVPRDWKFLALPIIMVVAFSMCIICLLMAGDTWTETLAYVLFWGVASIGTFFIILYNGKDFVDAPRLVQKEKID
UniProt Q8IZQ5, whole entry, looked up: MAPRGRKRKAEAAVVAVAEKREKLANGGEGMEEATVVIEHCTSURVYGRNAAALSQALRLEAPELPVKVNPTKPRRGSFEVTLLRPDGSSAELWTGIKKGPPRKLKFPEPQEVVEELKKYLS

Assays:
Test in all cases: log2 fold change, soluble protein after heating vs DMSO (PISA); higher = thermal stabilisation; K562 lysate, 10 uM; active = over 0.2 and 3.5 SD of the protein, either way, in both replicates (recomputed)
[1] = compound: C#Cc1cccc(Nc2ncnc3cc(OCCOC)c(OCCOC)cc23)c1 [erlotinib]
Outline: (§1)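 The values are log-two fold changes in thermal stability compared with solvent controls and come from duplicates. They were obtained by TMTpro 16plex LC-MS/MS, with channel sums equalised, on the supernatant after 21,000xg for 90 min. That supernatant came from crude K562 extract at 1 mg/mL protein treated with 10 μM compound for 30 min, heated for 3 min across 48°C-58°C, pooled and brought to 0.5% NP-40 at 4°C.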

[2] = compound: C/C(=N\NC(=O)C1=CC(=CC=C1)S(=O)(=O)N2CCOCC2)/C3=C(C=CC(=C3)Cl)O
Outline: as §1

[3] = compound: C1=CC(=CC=C1C2=NC3=C(N2)C=C(C=C3)C(=O)N)OC4=CC=C(C=C4)Cl
Outline: as §1

[4] = compound: C1=CC2=C(C=CC(=C2)/C=C\3/C(=O)NC(=NCC4=CC=CS4)S3)N=C1
Outline: as §1

[5] = compound: C1=CC2=NC=CN=C2C=C1/C=C/3\C(=O)NC(=O)S3
Outline: as §1

[6] = compound: C1=CC=C(C=C1)C2=NC(=C(N2)C3=CC=NC=C3)C4=CC(=C(C=C4)Cl)O
Outline: as §1

[7] = compound: C1=CC=C2C(=C1)C3=NNC4=CC=CC(=C43)C2=O
Outline: as §1

[8] = compound: C1CCN(C1)C(=O)NC2=CC=CC(=C2)NC3=NC=C(C(=N3)NCCC4=CN=CN4)Br
Outline: as §1

[9] = compound: C1CN(CCC1(CC2=CC=C(C=C2)Cl)N)C3=NC=NC4=C3C=CN4
Outline: as §1

[10] = compound: C1COCCN1CCN2C3=CC=CC=C3N=C2NC(=O)C4=CC(=CC=C4)[N+](=O)[O-] [IRAK-1-4 Inhibitor I]
Outline: as §1

[11] = compound: C=CC(=O)N1CCC[C@@H](n2nc(-c3ccc(Oc4ccccc4)cc3)c3c(N)ncnc32)C1 [ibrutinib]
Outline: as §1

[12] = compound: CC(=O)c1cnc2ccc(-c3cc(Cl)c(O)c(Cl)c3)nc2c1N[C@H]1CC[C@H](CN(C)C)CC1
Outline: as §1

[13] = compound: CC(C)(C)Cn1c(N)nc2ccc(-c3[nH]c(C(C)(C)C)nc3-c3ccc(F)cc3)nc21 [ralimetinib]
Outline: as §1

[14] = compound: CC(C)(O)CC(=O)NCCn1ccc2ncnc(Nc3ccc(Oc4cccc(C(F)(F)F)c4)c(Cl)c3)c21
Outline: as §1

[15] = compound: CC(C)C1=C2N=C(C=C(N2N=C1)NCC3=CC=CC=C3)NCCCCCCN
Outline: as §1

[16] = compound: CC1=C(C(CC(=O)N1)C2=CC=C(C=C2)C(F)(F)F)C(=O)NC3=C(C=C4C(=C3)C=NN4)F
Outline: as §1

[17] = compound: CC1=C(C2=C(C=C1)C(=O)C3=CC=CC=C3N2CCCN)C
Outline: as §1

[18] = compound: CC1=C(C=C(C=C1)NC(=O)C2=CC(=CC=C2)C(C)(C)C#N)NC3=CC4=C(C=C3)N=CN(C4=O)C
Outline: as §1

[19] = compound: CC1=C(C=C(C=C1)NC(=O)C2=CC(=CC=C2)N(C)C)NC(=O)C3=CC=C(C=C3)O
Outline: as §1

[20] = compound: CC1=CC=C(C=C1)SC2=C3C=C(SC3=CN=C2)C(=O)N
Outline: as §1

Measured: log2 fold change

SEC24B isoform 3 (UniProt O95487)
inactive: [1] 0.012 | [2] 0.035 | [3] 0.003 | [4] 0.043 | [5] 0.022 | [6] -0.019 | [7] 0.021 | [8] -0.007 | [9] 0.056 | [10] 0.026 | [11] 0.044 | [12] -0.005 | [13] -0.012 | [14] -0.028 | [15] 0.023 | [16] -0.039 | [17] -0.01 | [18] -0.016 | [19] -0.015 | [20] -0.023

SEC24A (UniProt O95486)
inactive: [1] 0.042 | [2] 0.044 | [3] 0.059 | [4] 0.047 | [5] -0.015 | [6] -0.03 | [7] -0.032 | [8] -0.013 | [9] -0.005 | [10] -0.01 | [11] -0.029 | [12] -0.012 | [13] -0.005 | [14] -0.024 | [15] -0.016 | [16] 0.008 | [17] 0.016 | [18] 0.002 | [19] 0.031 | [20] 0.002

SCAF1 (UniProt Q9H7N4)
inactive: [1] 0.016 | [2] 0.113 | [3] 0.066 | [4] 0.218 | [5] 0.025 | [6] -0.022 | [7] 0.033 | [8] 0.047 | [9] 0.041 | [10] 0.081 | [11] 0.219 | [12] -0.054 | [13] -0.025 | [14] 0.171 | [15] 0.042 | [16] 0.065 | [17] -0.06 | [18] 0.056 | [19] 0.056 | [20] 0.002

SEH1L isoform 1 (UniProt Q96EE3)
inactive: [1] -0.008 | [2] 0.082 | [3] -0.001 | [4] -0.023 | [5] 0.014 | [6] -0.015 | [7] -0.012 | [8] -0.025 | [9] 0.026 | [10] 0.031 | [11] 0.013 | [12] -0.024 | [13] -0.011 | [14] -0.008 | [15] 0.005 | [16] -0.021 | [17] -0.014 | [18] 0.015 | [19] 0.017 | [20] -0.014

SEC23B (UniProt Q15437)
inactive: [1] 0.046 | [2] 0.016 | [3] -0.004 | [4] 0.009 | [5] 0.005 | [6] 0.005 | [7] 0.004 | [8] -0.002 | [9] 0.033 | [10] 0.001 | [11] -0.006 | [12] 0 | [13] -0.008 | [14] 0.007 | [15] -0.015 | [16] 0 | [17] -0.016 | [18] -0.008 | [19] -0.011 | [20] 0.004

SEC61G (UniProt P60059)
inactive: [1] 0.065 | [2] -0.196 | [3] -0.111 | [4] 0.032 | [5] 0.043 | [6] 0.032 | [7] -0.126 | [8] -0.096 | [9] 0.065 | [10] 0.083 | [11] 0.037 | [12] 0 | [13] -0.019 | [14] -0.229 | [15] -0.052 | [16] -0.081 | [17] -0.053 | [18] 0.071 | [19] 0.004 | [20] 0.052

SCYL2 (UniProt Q6P3W7)
inactive: [1] -0.017 | [2] 0.388 | [3] 0.058 | [4] -0.011 | [5] 0.016 | [6] -0.088 | [7] -0.012 | [8] -0.025 | [9] 0.005 | [10] 0.011 | [11] 0 | [12] 0.005 | [13] -0.009 | [14] -0.025 | [15] 0.003 | [16] 0.045 | [17] 0.033 | [18] -0.029 | [19] -0.029 | [20] -0.012

Taken from the entries so far (two entries):
SEC24B isoform 3 (UniProt O95487)
inactive: [1] 0.012 | [2] 0.035 | [3] 0.003 | [4] 0.043 | [5] 0.022 | [6] -0.019 | [7] 0.021 | [8] -0.007 | [9] 0.056 | [10] 0.026 | [11] 0.044 | [12] -0.005 | [13] -0.012 | [14] -0.028 | [15] 0.023 | [16] -0.039 | [17] -0.01 | [18] -0.016 | [19] -0.015 | [20] -0.023

SEC24A (UniProt O95486)
inactive: [1] 0.042 | [2] 0.044 | [3] 0.059 | [4] 0.047 | [5] -0.015 | [6] -0.03 | [7] -0.032 | [8] -0.013 | [9] -0.005 | [10] -0.01 | [11] -0.029 | [12] -0.012 | [13] -0.005 | [14] -0.024 | [15] -0.016 | [16] 0.008 | [17] 0.016 | [18] 0.002 | [19] 0.031 | [20] 0.002

Next part:

SACM1L (UniProt Q9NTJ5)
inactive: [1] 0.063 | [2] 0.007 | [3] -0.167 | [4] 0 | [5] 0.018 | [6] -0.02 | [7] -0.057 | [8] -0.027 | [9] 0.012 | [10] 0.043 | [11] -0.019 | [12] 0.04 | [13] 0.033 | [14] -0.115 | [15] 0.018 | [16] 0.037 | [17] 0.063 | [18] 0.003 | [19] 0.052 | [20] 0.052

SEMA7A (UniProt O75326)
inactive: [1] -0.001 | [2] -0.035 | [3] 0.074 | [4] -0.007 | [5] -0.075 | [6] -0.079 | [7] -0.079 | [8] -0.149 | [9] 0.107 | [10] 0.029 | [11] 0.009 | [12] -0.015 | [13] -0.012 | [14] 0.025 | [15] -0.15 | [16] 0.041 | [17] 0.051 | [18] 0.035 | [19] 0.034 | [20] 0.037

SEPHS2 (UniProt Q99611)
inactive: [1] -0.051 | [2] 0.05 | [3] 0.002 | [4] -0.029 | [5] -0.009 | [6] -0.005 | [7] 0.091 | [8] 0.061 | [9] 0.052 | [10] -0.025 | [11] -0.014 | [12] 0.015 | [13] -0.001 | [14] -0.035 | [15] -0.033 | [16] 0.02 | [17] 0.002 | [18] 0.015 | [19] -0.038 | [20] 0.012

SEC16A isoform 5 (UniProt O15027)
inactive: [1] 0.006 | [2] -0.019 | [3] 0.025 | [4] -0.016 | [5] -0.031 | [6] -0.038 | [7] -0.085 | [8] -0.022 | [9] 0.002 | [10] -0.005 | [11] 0.035 | [12] -0.021 | [13] -0.013 | [14] 0.015 | [15] 0.01 | [16] 0.019 | [17] 0.004 | [18] -0.121 | [19] 0.011 | [20] -0.031

SCAMP3 (UniProt O14828)
inactive: [1] -0.042 | [2] 0.07 | [3] -0.014 | [4] 0.014 | [5] -0.024 | [6] -0.012 | [7] -0.003 | [8] 0.009 | [9] -0.01 | [10] -0.008 | [11] -0.012 | [12] -0.015 | [13] -0.025 | [14] 0 | [15] -0.049 | [16] 0.007 | [17] 0.02 | [18] -0.006 | [19] -0.007 | [20] 0.012

SCO1 (UniProt O75880)
inactive: [1] 0.008 | [2] -0.06 | [3] 0.036 | [4] -0.014 | [5] 0.011 | [6] 0.012 | [7] -0.045 | [8] 0.033 | [9] 0.068 | [10] 0.006 | [11] 0.029 | [12] 0.006 | [13] -0.006 | [14] -0.072 | [15] -0.11 | [16] 0.044 | [17] -0.011 | [18] 0.021 | [19] -0.065 | [20] -0.023

SDE2 (UniProt Q6IQ49)
inactive: [1] -0.057 | [2] 0.003 | [3] 0.015 | [4] -0.012 | [5] -0.01 | [6] 0.025 | [7] 0.043 | [8] 0 | [9] -0.015 | [10] 0.011 | [11] 0.026 | [12] -0.015 | [13] -0.003 | [14] 0.002 | [15] 0.02 | [16] -0.038 | [17] 0.008 | [18] -0.002 | [19] 0 | [20] -0.029

SELENOH (UniProt Q8IZQ5)
inactive: [1] 0.015 | [2] -0.019 | [3] 0.018 | [4] 0.005 | [5] -0.001 | [6] 0.042 | [7] 0.01 | [8] 0.006 | [9] 0.024 | [10] 0.044 | [11] -0.013 | [12] 0.029 | [13] 0.027 | [14] -0.03 | [15] -0.013 | [16] -0.037 | [17] -0.01 | [18] 0.022 | [19] -0.008 | [20] 0.015
